# Measured values reported in PubChem BioAssay (EPA / NIEHS).
# Where “and” joins values, the source holds several entries; their conditions need not be identical. Equal values may be shown once. The inconclusive results got no clear call from the source; some entries with a clear call stand among them for comparison. A potency beside an inconclusive call is a rough fit, not a confirmed value. Calls of active or inactive are those of the source. The calls were made as follows: active = hit-call score of the fitted dose curve at least 0.9, where 1 is the maximum; inconclusive = response in the unintended direction; inactive = score below 0.9.
# Experiment: TOX21_p53_BLA_p4_viability: Viability Assessment in the Tox21 HCT-116 p53 Agonism Beta-lactamase Assay, Phase 4 (AID 2283597);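 also: hits lower the luminescence signal meaning cytotoxicity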
# Description: TOX21_p53_BLA_p4 is a cell-based, single-readout assay that uses HCT116, a human intestinal cell line, […] in a 1536-well plate.TOX21_p53_BLA_p4_viability is an assay readout measuring cellular ATP content and detected with CellTiter-Glo Luciferase-coupled ATP quantitation.TOX21_p53_BLA_p4_viability used a type of viability reporter where loss-of-signal activity can be used to understand changes in the cell viability. Furthermore, this assay endpoint can be referred to as a secondary readout, because this assay has produced multiple assay endpoints where this one serves a viability function. To generalize the intended target to other relatable targets, this assay endpoint is annotated to the cell cycle intended target family, where the subfamily is cytotoxicity.
# Thawing Method: Place 14 mL of pre-warmed thaw medium into a 15 mL of conical tub. Remove the vial of cells to be thawed from liquid nitrogen and thaw rapidly by placing at 37C in a water bath with gentle agitation for 1-2 minutes. Decontaminate the vial by wiping with 70% ethanol before opening in a biological safety cabinet. Transfer the vial contents drop-wise into 14 mL of thaw medium in a sterile 15-mL conical tub. Centrifuge cells at 900 rpm for 4 minutes and resuspend in thaw medium. Transfer contents to the T75 tissue culture flask containing Thaw Medium and place flask in a humidified 37C/5% CO2 incubator. Switch to growth medium at first passage.Propagation Method: Aspirate medium, rinse once in DPBS, add 0.25% Trypsin/EDTA and swirl to coat the cell evenly. Add an equal volume of Growth Medium to inactivate Trypsin after 2-3 minutes incubation at 37C. Centrifuge cells at 900 rpm for 4 minutes and resuspend in growth medium. Cell should be passage or fed at least twice a week.Assay Protocol: Harvest cells from culture in growth medium and resuspend in assay medium. 2.2 Dispense 4000 cells/5 uL/well into 1536-well black/clear bottom plates using a Multidrop dispenser. After the cells were incubated at 37C for 5 hours, 23 nL of compounds dissolved in DMSO were transferred to the assay plate by a PinTool resulting in a 217-fold dilution. Incubate the plates for 16 hours at 37C, 5% CO2. Add 1 uL of 6X LiveBLAzer FRET B/G (CCF4-AM) Substrate Mixture to each well using a BioRAPTR dispenser and incubate the plates at room temperature for 2 hours. Measure fluorescence intensity at 460 and 530 nm emission and 405 nm excitation by an Envision detector. Data is expressed as the ratio of 460nm/530nm emissions. Add 4 uL of Cell-titer Glo to each well using BioRAPTR and incubate the plates at room temperature for […]. For cell viability readout that measures cytotoxicity, 4 ul/well of CellTiter-Glo reagent was added into the assay plates using a Flying Reagent Dispenser. After 30 min incubation at room temperature, the luminescence intensity in the plates was measured using a ViewLux plate reader.
Structure (SMILES),AC50,outcome
CC(C)CC(=O)CC(C)CC(C)C (stereo not given),inconclusive: 46.1 µM,
CCCCCCC(CO)CCCC (stereo not given),inconclusive: 46.1 µM,
O=C(OCCOCCOC(=O)c1ccccc1)c1ccccc1,inconclusive: 1.15 µM,
O=C1O[C@H]([C@H](O)CO)C(O)=C1O,,inactive
Oc1cccc2ccccc12,inconclusive: 32.5 µM,inactive
CCOC(=O)c1ccc(C2CCC(NC[C@H](O)COc3ccc(O)c(NS(C)(=O)=O)c3)CC2)cc1 (stereo not given in full),active: 60.2 µM,
CC(=O)NS(=O)(=O)c1ccc(N)cc1,inconclusive: 85.3 µM,
CCCCC(CC)COC(=O)c1ccc(N(C)C)cc1 (stereo not given),inconclusive: 0.0014 µM,
CC(C)CC(C)(O)C#CC(C)(O)CC(C)C (stereo not given),,inactive
CC(C)C1CCC(O)CC1 (stereo not given),,inactive
CCCCCCCCCCCCCCCCCC[N+](C)(C)C,active: 65.7 µM,
CCCSc1ccc2nc(NC(=O)OC)[nH]c2c1,,inactive
Cc1nc(C)nc(N2C[C@@H](C)N(c3ccnc([C@@H](C)O)n3)[C@@H](C)C2)n1,inconclusive: 23 µM,
CCCCc1nc2cccnc2n1Cc1ccc(-c2ccccc2-c2nnn[nH]2)cc1,inconclusive: 0.000557 µM,
CCCCCCOc1ccc(O)cc1,active: 65 µM,
CN1[C@@H]2CC(OC(=O)[C@H](CO)c3ccccc3)C[C@H]1[C@@H]1O[C@@H]12 (stereo not given in full),inconclusive: 46.1 µM and inconclusive: 23 µM and inconclusive: 0.0582 nM,

Structure (SMILES),AC50,outcome
C=CCOC(=O)C(=C)C,inconclusive: 0.602 µM,inactive
CC(=O)c1ccccc1O,inconclusive: 46.1 µM,
C=CCOC(=O)CC(C)C,inconclusive: 46.1 µM,inactive
CC(C)(C#N)c1cc(Cn2cncn2)cc(C(C)(C)C#N)c1,inconclusive: 15.7 µM,
CCCCCCCCCOS(=O)(=O)O,,inactive
CCOC(=O)CC(C(C)=O)C(C)=O,inconclusive: 6.24 µM,
CC(C)(CO)COC(=O)C(C)(C)CO,inconclusive: 46.1 µM,
O=c1[nH]c(=O)c2cn[nH]c2[nH]1,inconclusive: 46.1 µM,
CC1(C)CC(N=C=O)CC(C)(CN=C=O)C1 (stereo not given),inconclusive: 46.6 µM,inactive
C[C@@H]1CCN(C(=O)[C@H](CCCN=C(N)N)NS(=O)(=O)c2cccc3c2NC[C@H](C)C3)[C@@H](C(=O)O)C1,inconclusive: 23 µM,
COC(=O)c1cccnc1,,inactive
CC/C(=C\C(=N/O)C(N)=O)C(C)[N+](=O)[O-] (stereo not given),,inactive
NC(=O)c1ccc([N+](=O)[O-])cc1Cl,inconclusive: 46.1 µM and inconclusive: 15.6 µM,
COc1ccc([N+](=O)[O-])cc1N,inconclusive: 46.2 µM,inactive
O=c1[nH]nnc2ccccc12,inconclusive: 47.2 µM,inactive
Cc1ccc2ncccc2c1,inconclusive: 46.1 µM,inactive

# Complete entries, looked up by structure.
# CC1(C)CC(N=C=O)CC(C)(CN=C=O)C1 (stereo not given) in the list: AC50: inconclusive: 46.6 µM; outcome: inactive
# CCOC(=O)CC(C(C)=O)C(C)=O in the list: AC50: inconclusive: 6.24 µM
# CC(C)(CO)COC(=O)C(C)(C)CO in the list: AC50: inconclusive: 46.1 µM
